From patent US20180230218A1
Substitutions are numbered along the chain they refer to. No constants are given. Whether binding was seen depends on the method and setting. A result given as binding can be weak or reduced; the word gives no strength.

B1: hucMet22Gv2.2 (antibody, V domains shown)
VH: QVQLVQSGAEVKKPGASVKVSCKASGYTFTDYNMDWVRQAPGQRLEWIGDLNPNNGATIYNQKFKGRATLTVDMSASTAYMELSSLRSEDTAVYYCARGNYYGNYYYLMDYWGQGTSVTVSS
VL: DIQMTQSPSSLSASVGDRVTITCRASENIYSTLAWYQQKPGKAPKLLVYAATNLADGVPSRFSGSGSGTDYTLTISSLQPEDFATYYCQHFWGTPYTFGQGTKVEIKR
B2: hucMet27v1.2 (antibody, human IgG1, kappa, V domains shown)
VH: EVQLVESGGGLVQPGGSLRLSCAASGFTFSSYDMSWVRQTPGKGLELVATINSNGVSIYYPDSVKGRFTISRDIAKNTLYLQMSSLRAEDTAMYYCAREEITTEMDYWGQGTSVTVSS
VL: DIVLTQSPASLAVSPGQRATISCRASESVDSYGNSFIHWYQQKPGQPPKLLIYRASNLESGIPARFSGSGSRTDFTLTINPVEANDVATYYCQQSNEEPLTFGGGTKLELKR
B3: hucMet27Gv1.2 (antibody, human IgG1, kappa, V domains shown)
VH: B2 VH with T40A, T78S, S84N, M93V, S113L
VL: EIVLTQSPATLSLSPGERATLSCRASESVDSYGNSFIHWYQQKPGQAPRLLIYRASNLESGIPARFSGSGSGTDFTLTISSLEPEDFAVYYCQQSNEEPLTFGQGTKVELKR

Each binder was assayed against Cyno cMet-ECD-his (cynomolgus monkey) (assay: BLI (ForteBio)).

| Binder | binding |
| --- | --- |
| B1 | binds |
| B2 | binds |
| B3 | binds |
